Source: US20090170219
For some assays here: Negatives hold for the conditions tested. For some assays here: Weaker means in comparison with the reference protein, sequence or condition of that experiment. For some assays here: For at least one entry, the source does not settle the construct or the ends of the probe. For some assays here: At least one result comes from cells or an extract, where the contact may be indirect.

Chains of the proteins cited; added tags and fusions are not shown. A line that says so, or that is headed by a name, gives the form on record, which may keep a tag or linker.
IgD (human), one chain, as listed by the source: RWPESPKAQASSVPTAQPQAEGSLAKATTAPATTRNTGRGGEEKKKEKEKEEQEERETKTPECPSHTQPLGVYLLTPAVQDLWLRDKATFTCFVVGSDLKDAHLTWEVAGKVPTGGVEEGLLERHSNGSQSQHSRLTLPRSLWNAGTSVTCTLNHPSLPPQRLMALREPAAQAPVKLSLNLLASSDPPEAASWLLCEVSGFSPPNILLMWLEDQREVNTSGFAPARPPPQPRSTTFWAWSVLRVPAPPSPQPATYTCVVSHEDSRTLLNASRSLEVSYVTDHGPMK
IgM (human), one chain, as listed by the source: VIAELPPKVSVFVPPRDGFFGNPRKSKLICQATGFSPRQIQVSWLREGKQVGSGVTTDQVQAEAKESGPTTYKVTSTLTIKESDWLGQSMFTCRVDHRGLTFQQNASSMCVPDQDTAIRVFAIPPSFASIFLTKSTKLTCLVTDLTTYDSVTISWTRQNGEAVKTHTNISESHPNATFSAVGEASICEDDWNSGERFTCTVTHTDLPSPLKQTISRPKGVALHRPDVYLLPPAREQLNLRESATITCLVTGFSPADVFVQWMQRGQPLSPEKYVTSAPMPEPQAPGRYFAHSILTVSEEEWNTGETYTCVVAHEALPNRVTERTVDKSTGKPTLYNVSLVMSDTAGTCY
IgE (human), one chain, as listed by the source: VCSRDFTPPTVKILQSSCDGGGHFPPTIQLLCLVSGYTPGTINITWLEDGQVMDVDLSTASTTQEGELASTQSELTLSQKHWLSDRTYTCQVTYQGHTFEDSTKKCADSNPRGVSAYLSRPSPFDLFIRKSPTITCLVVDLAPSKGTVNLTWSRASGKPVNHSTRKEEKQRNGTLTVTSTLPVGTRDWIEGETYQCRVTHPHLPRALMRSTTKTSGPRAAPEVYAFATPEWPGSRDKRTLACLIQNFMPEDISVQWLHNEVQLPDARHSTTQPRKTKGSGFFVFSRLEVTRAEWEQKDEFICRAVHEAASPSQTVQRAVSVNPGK

Columns and labels:
IgG1 (human) = experiment: SPR; settings: purified native protein, protein details: Calbiochem
IgA (human) = experiment: SPR; settings: 2'-F at all pyrimidines; purified native protein; protein details: Bethyl Laboratories; label: 3' A16 tail for immobilisation; variant of SEQ ID NO:16
IgD (human) = experiment: SPR; settings: 2'-F at all pyrimidines, purified native protein, protein details: Biogenesis, label: 3' A16 tail for immobilisation
IgE (human) = experiment: SPR; settings: 2'-F at all pyrimidines, purified native protein, protein details: Calbiochem, label: 3' A16 tail for immobilisation
IgG (cat) = experiment: SPR; settings: 2'-F at all pyrimidines, purified native protein, protein details: Bethyl Laboratories, label: 3' A16 tail for immobilisation
IgG (dog) = experiment: SPR; settings: 2'-F at all pyrimidines, purified native protein, protein details: Rockland, label: 3' A16 tail for immobilisation
IgM (human) = experiment: SPR; settings: 2'-F at all pyrimidines; very weak but measurable; purified native protein; protein details: Chemicon International; label: 3' A16 tail for immobilisation; variant of SEQ ID NO:16
IgG in serum (human) = experiment: pull-down; settings: 2'-F at all pyrimidines; 150 mM NaCl, 2.5 mM MgCl2, 20 mM Tris pH 7.6 wash; eluted by 200 mM KCl + 10 mM EDTA; protein in an extract; protein details: human serum, Chemicon International; label: 3' A16 tail for SPR, 5' biotin for serum pull-down; variant of SEQ ID NO:13
IgG in serum (mouse) = experiment: pull-down; settings: 2'-F at all pyrimidines; mouse serum; rProtein A did pull down IgG; protein in an extract; protein details: mouse serum, Chemicon International; label: 3' A16 tail for SPR, 5' biotin for serum pull-down; variant of SEQ ID NO:13
[1] = test system: IgG Fc fragment (IgG-Fc) (human); experiment: SPR; settings: 2'-F at all pyrimidines; 0.6 uM IgG-Fc; purified native protein; protein details: Athens Research & Technology; label: 3' A16 tail for immobilisation

Q: Does “GGACAGGUGCUCUGCGAGCCACGCGGAACUGUCC [SEQ ID NO:13 natural RNA]” bind (IgG1 (human); amount of IgG1 bound decreased vs 2'-F RNA, variant of SEQ ID NO:13)?
A: Result: binds more weakly

Q: Does “GGACGAGUUACAGGUGCUCCAUCAACAAAAUGUUACAUGGAACUGUAACGGCCG [SEQ ID NO:11 natural RNA]” bind (IgG1 (human); amount of IgG1 bound decreased vs 2'-F RNA, variant of SEQ ID NO:11)?
A: Result: binds more weakly

Q: Does “GGAGGUGCUCCGAAAGGAACTCCAAAAAAAAAAAAAAAA [SEQ ID NO:17-3 (23F3)]” bind (IgG1 (human); deoxy G1 G2 A3 C10-G17 T21 C22 C23 and A16 tail, 2'-F U6 C8 U9 C20, rest 2'-OH, parent SEQ 17 ++, variant of SEQ ID NO:17)?
A: Result: binds more weakly

Q: Does “GGAGGUGCUCCGAAAGGAACUCC [SEQ ID NO:17-7-1]” bind (IgG1 (human); as 17-7, bulge G(OH)A(OH)U(F)G(OH)C(H)U(OH), variant of SEQ ID NO:17-7 (23F23))?
A: Result: no binding

Q: Does “GGAGGUGCUCCGAAAGGAACUCC [SEQ ID NO:17-7-2]” bind (IgG1 (human); as 17-7, bulge G(OH)C(F)U(F)G(OH)C(H)U(OH), variant of SEQ ID NO:17-7 (23F23))?
A: Result: no binding

Q: Does “GGAGGUGCUCCGAAAGGAACUCC [SEQ ID NO:17-7-3]” bind (IgG1 (human); as 17-7, bulge G(OH)G(OH)C(F)G(OH)C(H)U(OH), variant of SEQ ID NO:17-7 (23F23))?
A: Result: no binding

Q: Does “GGAGGUGCUCCGAAAGGAACUCC [SEQ ID NO:17-7-4]” bind (IgG1 (human); as 17-7, bulge G(OH)G(OH)U(F)A(OH)C(H)U(OH), variant of SEQ ID NO:17-7 (23F23))?
A: Result: no binding

Q: Does “GGAGGUGCUCCGAAAGGAACUCC [SEQ ID NO:17-7-5]” bind (IgG1 (human); as 17-7, bulge G(OH)G(OH)U(F)U(F)C(H)U(OH), variant of SEQ ID NO:17-7 (23F23))?
A: Result: no binding

Q: Does “GGAGGUGCUCCGAAAGGAACUCC [SEQ ID NO:17-7-102]” bind (IgG1 (human); as 17-7 with 2'-OH U6, variant of SEQ ID NO:17-7 (23F23))?
A: Result: no binding

Q: Does “GGAGGUGCUCCGAAAGGAACUCC [SEQ ID NO:17-7-103]” bind (IgG1 (human); as 17-7 with 2'-H U6, variant of SEQ ID NO:17-7 (23F23))?
A: Result: no binding

Q: Does GGAGGUGCUCCGAAAGGAACUCC [SEQ ID NO:17] bind (IgA (human))?
A: Result: no binding

Q: Does GGAGGUGCUCCGAAAGGAACUCC [SEQ ID NO:17] bind (IgD (human); variant of SEQ ID NO:16)?
A: Result: no binding

Q: Does GGAGGUGCUCCGAAAGGAACUCC [SEQ ID NO:17] bind (IgE (human); variant of SEQ ID NO:16)?
A: Result: no binding

Q: Does GGAGGUGCUCCGAAAGGAACUCC [SEQ ID NO:17] bind (IgG (cat); variant of SEQ ID NO:16)?
A: Result: no binding

Q: Does GGAGGUGCUCCGAAAGGAACUCC [SEQ ID NO:17] bind (IgG (dog); variant of SEQ ID NO:16)?
A: Result: no binding

Q: Does GGAGGUGCUCCGAAAGGAACUCC [SEQ ID NO:17] bind (IgM (human))?
A: Result: binds more weakly

Q: Does “GGAGGUGCUCUGCGAGCCACGCGGAACUCC [SEQ ID NO:15]” bind (IgG in serum (human))?
A: Result: binds

Q: Does “GGAGGUGCUCUGCGAGCCACGCGGAACUCC [SEQ ID NO:15]” bind (IgG in serum (mouse))?
A: Result: no binding

Q: Does “GGGACACAAUGGACGAGUUACAGGUGCUCCAUCAACAAAAUGUUACAUGGAACUGUAACGGCCGACAUGAGAG [SEQ ID NO:1]” bind (IgD (human))?
A: Result: no binding

Q: Does “GGGACACAAUGGACGAGUUACAGGUGCUCCAUCAACAAAAUGUUACAUGGAACUGUAACGGCCGACAUGAGAG [SEQ ID NO:1]” bind (IgE (human))?
A: Result: no binding

Q: Does “GGGACACAAUGGACGAGUUACAGGUGCUCCAUCAACAAAAUGUUACAUGGAACUGUAACGGCCGACAUGAGAG [SEQ ID NO:1]” bind (IgG (cat))?
A: Result: no binding

Q: Does “GGGACACAAUGGACGAGUUACAGGUGCUCCAUCAACAAAAUGUUACAUGGAACUGUAACGGCCGACAUGAGAG [SEQ ID NO:1]” bind (IgG (dog))?
A: Result: no binding

Q: Does “GGGCCACAGCGAGGUGCUCCACCAUUCACGUGGAACUCGUGGGCAGCCCGUCCCCGCGUGUGGUCGG [SEQ ID NO:9]” bind [1]?
A: Result: binds
